Where a chain is given by its changes, count along the chain named. A weaker result is weaker than the reference pair of the same experiment. For part of these data: Protein sequences can lack the tags named with them. For part of these data: Construct, isoform or probe ends are uncertain for at least one entry.

Consider two sequences from PMC6345439, “INDETERMINATE-DOMAIN 4 (IDD4) coordinates immune responses with plant-growth in Arabidopsis thaliana”.

Data set [1] concerns the target T1, MBP-IDD4 (WT, truncated) (Arabidopsis thaliana) (UniProt Q8GYC1).
T1 sequence (looked up): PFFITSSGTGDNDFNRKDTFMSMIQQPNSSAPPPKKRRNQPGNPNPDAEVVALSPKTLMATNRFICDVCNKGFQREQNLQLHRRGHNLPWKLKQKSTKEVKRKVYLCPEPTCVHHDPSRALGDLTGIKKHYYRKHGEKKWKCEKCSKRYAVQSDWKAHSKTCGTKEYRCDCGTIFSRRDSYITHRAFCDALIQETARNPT
Nature of the data set: EMSA. As to conditions: LightShift Chemiluminescent EMSA kit instructions; 20 fmol biotinylated DNA, 1 ug protein; pH and temperature not stated; recombinant protein; residues 20-219; protein details: MBP; label: 3' biotin. (In general: Mobility shift assays separate free from complexed probe on a gel.)

Data set [2] concerns the target MBP-IDD4-AA (phospho-dead, truncated) S73A,T130A (Arabidopsis thaliana) (UniProt Q8GYC1). Kind of data set: EMSA. As to conditions: LightShift Chemiluminescent EMSA kit instructions; 20 fmol biotinylated DNA, 1 ug protein; pH and temperature not stated; recombinant protein; residues 20-219; protein details: MBP; label: 3' biotin.
Data set [3] concerns the target T2, MBP-IDD4-DD (phospho-mimic, truncated) S73D,T130D (Arabidopsis thaliana) (UniProt Q8GYC1).
T2 sequence (looked up): T1 sequence (looked up) with S54D, T111D
Kind of data set: competition with a labelled probe. The conditions noted are these: unlabeled competitor up to 0.5 uM (100x excess) against N1, minor competition; LightShift Chemiluminescent EMSA kit instructions; 20 fmol biotinylated DNA, 1 ug protein; pH and temperature not stated; recombinant protein; residues 20-219; protein details: MBP.

For “ACATGGTAGACAAAATAATGAAGCCAAAATTAATA (double strand) [SAGT1 promoter ID1 probe (395s/395as)]”, the binding result in data set [1] and in data set [2] was “binds more weakly” each time.
In the case of “ACATGGTCTCAGGAATAATGACTCAGGAATTAATA (double strand) [SAGT1 mutated ID1 competitor, unlabeled (mut; 396s/396as)]”, the binding result in data set [3] is recorded as “binds more weakly”.
